Among the data in publication doi:10.1101/266486 are binding values, retold here.

Results are given in words; binding and its absence hold for the method and conditions named. Some results given as binding are weak or reduced against the parent protein; the word gives no strength. Tags and fused reporters may be left off the sequences shown.

This assay addresses T1, synthetic Hd1 microProtein (Hd1miP), fused to the GAL4 binding domain (rice (Oryza sativa)) (UniProt Q9FDX8).
T1 sequence: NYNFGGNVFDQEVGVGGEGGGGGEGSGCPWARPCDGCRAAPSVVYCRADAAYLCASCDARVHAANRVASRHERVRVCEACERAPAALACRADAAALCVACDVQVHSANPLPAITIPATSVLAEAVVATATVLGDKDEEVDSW
Put plainly: two-hybrid.

Turning to “HEADING DATE 1 (Hd1) full length, fused to the GAL4 activation domain (from UniProt Q9FDX8 1-395)”, the binding entry is reported as “binds”.
